Measurements: patent US6372438
No constants are given. Whether binding was seen depends on the method and setting. Some results given as binding are weak or reduced against the parent protein; the word gives no strength.

Sequences of proteins named here, by UniProt entry; tags and fusion partners are left off. Residues count along the entry.
UniProt P05622, residues 32-1098: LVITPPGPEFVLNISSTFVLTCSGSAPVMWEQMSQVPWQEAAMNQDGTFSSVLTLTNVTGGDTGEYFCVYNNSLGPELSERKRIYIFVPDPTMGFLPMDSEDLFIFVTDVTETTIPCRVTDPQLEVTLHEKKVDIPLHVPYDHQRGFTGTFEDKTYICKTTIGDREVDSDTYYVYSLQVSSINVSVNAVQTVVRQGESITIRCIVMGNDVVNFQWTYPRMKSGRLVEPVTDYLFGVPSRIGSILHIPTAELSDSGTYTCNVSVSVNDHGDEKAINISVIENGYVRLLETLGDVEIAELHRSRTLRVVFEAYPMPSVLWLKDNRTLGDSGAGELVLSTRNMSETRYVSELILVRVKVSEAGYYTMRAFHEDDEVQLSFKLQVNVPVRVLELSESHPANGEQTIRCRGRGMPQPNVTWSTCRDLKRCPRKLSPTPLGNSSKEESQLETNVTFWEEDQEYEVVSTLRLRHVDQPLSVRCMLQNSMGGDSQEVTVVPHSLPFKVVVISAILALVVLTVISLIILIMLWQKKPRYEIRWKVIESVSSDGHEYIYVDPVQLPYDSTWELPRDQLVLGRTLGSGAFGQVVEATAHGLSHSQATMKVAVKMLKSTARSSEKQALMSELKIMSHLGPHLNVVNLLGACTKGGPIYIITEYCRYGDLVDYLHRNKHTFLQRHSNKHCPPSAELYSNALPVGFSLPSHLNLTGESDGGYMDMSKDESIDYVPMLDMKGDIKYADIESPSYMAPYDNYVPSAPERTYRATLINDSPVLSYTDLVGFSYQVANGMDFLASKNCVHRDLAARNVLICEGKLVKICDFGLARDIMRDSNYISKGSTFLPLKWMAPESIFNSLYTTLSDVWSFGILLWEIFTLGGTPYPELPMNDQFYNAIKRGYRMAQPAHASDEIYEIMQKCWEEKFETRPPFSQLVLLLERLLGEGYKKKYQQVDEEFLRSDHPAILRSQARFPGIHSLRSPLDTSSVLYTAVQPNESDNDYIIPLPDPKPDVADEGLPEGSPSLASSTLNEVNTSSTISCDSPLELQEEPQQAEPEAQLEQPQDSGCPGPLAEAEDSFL

Legend:
[1] = molecular target: type B human PDGF receptor (B-hPDGF-R) on transfected CHO cells (CHO-HR5) (human) (UniProt P09619); assay: displacement of 125I-PDGF from CHO-HR5 cells; AA of lower affinity than BB
[2] = molecular target: native mouse PDGF receptor on BALB/c 3T3 cells (mouse) (UniProt P05622); assay: displacement of 125I-PDGF from BALB/c 3T3 cells

| binding [1] | binding [2] | Substance |
| --- | --- | --- |
| binds | binds | human recombinant PDGF AA homodimer (yeast-derived) (from UniProt P04085 87-211) (ligand) |
| – | binds | PDGF BB homodimer (recombinant) (from UniProt P01127 82-190) (ligand) |
